No constants are given. Whether binding was seen depends on the method and setting. In cells and extracts the contact can be indirect. Some binding calls cover weakened binding; strength is not graded here.

In test [1] the target is T1, Stau1 (Staufen1) (Xenopus laevis (endogenous in oocytes)) (UniProt Q6GM35).
T1 sequence: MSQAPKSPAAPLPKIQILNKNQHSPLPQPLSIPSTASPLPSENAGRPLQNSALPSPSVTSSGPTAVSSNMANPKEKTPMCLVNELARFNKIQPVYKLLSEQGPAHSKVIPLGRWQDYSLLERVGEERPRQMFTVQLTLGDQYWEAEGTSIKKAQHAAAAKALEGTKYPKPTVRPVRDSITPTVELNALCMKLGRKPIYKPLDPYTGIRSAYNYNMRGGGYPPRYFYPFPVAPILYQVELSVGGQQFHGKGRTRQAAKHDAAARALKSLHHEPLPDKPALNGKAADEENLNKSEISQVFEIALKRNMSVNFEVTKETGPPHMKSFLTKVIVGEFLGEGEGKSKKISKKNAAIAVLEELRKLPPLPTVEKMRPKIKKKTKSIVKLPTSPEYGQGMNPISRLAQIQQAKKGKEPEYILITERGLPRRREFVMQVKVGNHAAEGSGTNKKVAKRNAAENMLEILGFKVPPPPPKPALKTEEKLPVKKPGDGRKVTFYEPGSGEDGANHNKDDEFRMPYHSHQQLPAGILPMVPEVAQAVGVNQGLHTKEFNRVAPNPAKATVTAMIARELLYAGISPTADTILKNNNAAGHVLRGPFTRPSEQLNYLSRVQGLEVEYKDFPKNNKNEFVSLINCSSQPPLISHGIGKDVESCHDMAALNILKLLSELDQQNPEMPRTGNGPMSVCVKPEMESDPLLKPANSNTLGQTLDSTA
The test can be described thus: co-IP.

Test [2] has as its target T2, hnRNPAB (40LoVE) (Xenopus laevis (endogenous in oocytes)).
T2 sequence: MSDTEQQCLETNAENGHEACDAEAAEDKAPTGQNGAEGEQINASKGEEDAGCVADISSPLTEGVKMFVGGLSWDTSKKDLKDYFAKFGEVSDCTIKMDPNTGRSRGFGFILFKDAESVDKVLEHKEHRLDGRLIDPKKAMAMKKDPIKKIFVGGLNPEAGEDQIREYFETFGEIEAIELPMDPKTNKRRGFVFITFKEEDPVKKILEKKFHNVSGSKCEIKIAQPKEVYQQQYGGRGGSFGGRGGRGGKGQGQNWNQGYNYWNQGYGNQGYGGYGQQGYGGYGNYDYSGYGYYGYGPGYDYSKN
The test can be described thus: co-IP.

B1: hnRNPAB (40LoVE) (protein, UniProt A0A7M4CIF6 1-304)
chain: T2 sequence
For the molecule B1, in test [1], the binding entry is recorded as “binds”.

B2: Stau1 (Staufen1) (protein, UniProt Q6GM35 1-708)
chain: T1 sequence
Turning to B2, the binding result in test [2] is on record as “binds”.

The values are drawn from paper doi:10.1101/2020.05.08.084814.
